# The other results are listed elsewhere or left out. The data scatter; read single values as rough.
# The chains behind the UniProt entries cited, without tags or fusion partners. Where a name states a change or a piece, a line headed by the entry shows the natural chain unless it says otherwise. Residues count along the entry.
# UniProt O00203: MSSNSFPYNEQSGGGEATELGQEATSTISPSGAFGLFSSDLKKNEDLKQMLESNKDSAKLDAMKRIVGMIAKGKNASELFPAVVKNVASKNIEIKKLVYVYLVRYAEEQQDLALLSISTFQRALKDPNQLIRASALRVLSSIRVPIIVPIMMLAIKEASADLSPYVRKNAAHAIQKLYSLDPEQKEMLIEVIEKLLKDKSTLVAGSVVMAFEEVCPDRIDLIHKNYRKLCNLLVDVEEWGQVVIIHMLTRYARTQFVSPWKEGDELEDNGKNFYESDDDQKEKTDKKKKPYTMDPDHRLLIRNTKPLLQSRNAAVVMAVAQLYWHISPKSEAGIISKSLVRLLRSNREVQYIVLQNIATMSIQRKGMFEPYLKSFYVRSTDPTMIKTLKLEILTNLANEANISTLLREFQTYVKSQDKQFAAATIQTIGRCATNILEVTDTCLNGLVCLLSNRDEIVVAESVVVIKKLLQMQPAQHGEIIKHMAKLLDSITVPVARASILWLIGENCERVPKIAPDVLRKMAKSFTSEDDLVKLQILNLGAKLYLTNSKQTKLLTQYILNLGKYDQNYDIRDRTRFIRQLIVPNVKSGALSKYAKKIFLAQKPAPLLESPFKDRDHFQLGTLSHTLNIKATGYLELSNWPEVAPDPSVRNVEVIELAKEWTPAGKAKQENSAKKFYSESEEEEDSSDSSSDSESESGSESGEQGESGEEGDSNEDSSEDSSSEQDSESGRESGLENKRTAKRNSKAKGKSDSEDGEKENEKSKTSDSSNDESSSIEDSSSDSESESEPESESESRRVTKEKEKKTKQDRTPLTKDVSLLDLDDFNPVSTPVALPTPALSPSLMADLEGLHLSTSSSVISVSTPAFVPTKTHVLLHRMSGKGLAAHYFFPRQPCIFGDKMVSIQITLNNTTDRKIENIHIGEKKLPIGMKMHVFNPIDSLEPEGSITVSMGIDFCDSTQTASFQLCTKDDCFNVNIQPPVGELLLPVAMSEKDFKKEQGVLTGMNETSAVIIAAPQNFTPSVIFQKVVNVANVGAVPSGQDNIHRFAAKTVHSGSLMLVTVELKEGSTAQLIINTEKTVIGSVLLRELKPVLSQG
# UniProt Q8N3C0, whole entry, looked up: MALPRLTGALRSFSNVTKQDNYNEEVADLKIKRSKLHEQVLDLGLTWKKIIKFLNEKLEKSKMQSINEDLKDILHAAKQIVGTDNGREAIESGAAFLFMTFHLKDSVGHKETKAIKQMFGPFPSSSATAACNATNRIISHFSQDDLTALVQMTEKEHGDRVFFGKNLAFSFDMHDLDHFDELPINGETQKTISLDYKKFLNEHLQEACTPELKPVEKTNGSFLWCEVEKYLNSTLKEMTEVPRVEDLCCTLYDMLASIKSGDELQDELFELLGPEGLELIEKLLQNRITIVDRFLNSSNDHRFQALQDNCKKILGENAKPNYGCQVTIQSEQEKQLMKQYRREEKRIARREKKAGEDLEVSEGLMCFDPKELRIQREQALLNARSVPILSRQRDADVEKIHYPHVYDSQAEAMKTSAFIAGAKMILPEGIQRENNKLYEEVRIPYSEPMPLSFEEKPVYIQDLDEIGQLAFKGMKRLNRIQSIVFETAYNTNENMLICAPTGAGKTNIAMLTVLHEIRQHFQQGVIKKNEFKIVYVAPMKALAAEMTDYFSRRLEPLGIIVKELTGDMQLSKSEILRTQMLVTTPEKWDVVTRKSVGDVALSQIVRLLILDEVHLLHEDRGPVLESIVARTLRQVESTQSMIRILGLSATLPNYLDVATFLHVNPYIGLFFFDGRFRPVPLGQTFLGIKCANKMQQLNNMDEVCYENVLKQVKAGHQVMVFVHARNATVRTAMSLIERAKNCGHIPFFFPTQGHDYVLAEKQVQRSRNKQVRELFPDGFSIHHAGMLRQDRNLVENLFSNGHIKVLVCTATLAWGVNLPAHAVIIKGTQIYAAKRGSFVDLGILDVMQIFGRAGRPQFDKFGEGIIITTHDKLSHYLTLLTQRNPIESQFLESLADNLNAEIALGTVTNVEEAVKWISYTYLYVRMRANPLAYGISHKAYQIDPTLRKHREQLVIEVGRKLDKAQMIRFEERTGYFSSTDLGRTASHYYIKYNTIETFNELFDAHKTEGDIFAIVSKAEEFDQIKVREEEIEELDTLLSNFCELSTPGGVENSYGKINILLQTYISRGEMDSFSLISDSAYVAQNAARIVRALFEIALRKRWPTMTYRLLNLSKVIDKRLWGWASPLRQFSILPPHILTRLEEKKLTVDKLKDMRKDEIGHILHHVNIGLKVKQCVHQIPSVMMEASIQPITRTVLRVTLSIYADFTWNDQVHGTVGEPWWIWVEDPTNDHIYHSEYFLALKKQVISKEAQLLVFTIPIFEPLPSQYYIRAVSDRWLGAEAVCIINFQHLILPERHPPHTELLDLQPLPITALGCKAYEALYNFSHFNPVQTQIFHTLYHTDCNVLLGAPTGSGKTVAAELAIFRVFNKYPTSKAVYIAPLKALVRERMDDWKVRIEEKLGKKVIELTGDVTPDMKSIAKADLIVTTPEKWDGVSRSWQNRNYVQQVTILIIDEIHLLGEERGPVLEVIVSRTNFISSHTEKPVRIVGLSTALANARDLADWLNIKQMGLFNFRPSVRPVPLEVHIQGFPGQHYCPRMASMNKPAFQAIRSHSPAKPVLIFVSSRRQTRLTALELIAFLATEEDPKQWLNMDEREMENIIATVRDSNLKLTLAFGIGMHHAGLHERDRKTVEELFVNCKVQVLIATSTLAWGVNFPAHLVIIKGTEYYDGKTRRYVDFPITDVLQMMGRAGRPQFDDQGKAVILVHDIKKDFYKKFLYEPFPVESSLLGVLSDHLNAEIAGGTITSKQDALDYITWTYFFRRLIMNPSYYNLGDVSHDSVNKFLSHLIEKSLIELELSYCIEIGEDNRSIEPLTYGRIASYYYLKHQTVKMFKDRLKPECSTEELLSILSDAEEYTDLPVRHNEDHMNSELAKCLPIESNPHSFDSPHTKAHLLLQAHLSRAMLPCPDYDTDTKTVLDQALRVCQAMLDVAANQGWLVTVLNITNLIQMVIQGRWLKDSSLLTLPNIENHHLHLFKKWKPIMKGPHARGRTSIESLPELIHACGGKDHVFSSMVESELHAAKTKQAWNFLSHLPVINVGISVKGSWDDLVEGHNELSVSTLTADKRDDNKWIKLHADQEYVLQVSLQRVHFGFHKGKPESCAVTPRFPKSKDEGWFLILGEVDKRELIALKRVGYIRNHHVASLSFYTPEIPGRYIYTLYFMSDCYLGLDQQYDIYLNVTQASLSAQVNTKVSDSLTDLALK
# UniProt P07741, 123-145: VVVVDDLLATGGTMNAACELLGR
# UniProt P63010: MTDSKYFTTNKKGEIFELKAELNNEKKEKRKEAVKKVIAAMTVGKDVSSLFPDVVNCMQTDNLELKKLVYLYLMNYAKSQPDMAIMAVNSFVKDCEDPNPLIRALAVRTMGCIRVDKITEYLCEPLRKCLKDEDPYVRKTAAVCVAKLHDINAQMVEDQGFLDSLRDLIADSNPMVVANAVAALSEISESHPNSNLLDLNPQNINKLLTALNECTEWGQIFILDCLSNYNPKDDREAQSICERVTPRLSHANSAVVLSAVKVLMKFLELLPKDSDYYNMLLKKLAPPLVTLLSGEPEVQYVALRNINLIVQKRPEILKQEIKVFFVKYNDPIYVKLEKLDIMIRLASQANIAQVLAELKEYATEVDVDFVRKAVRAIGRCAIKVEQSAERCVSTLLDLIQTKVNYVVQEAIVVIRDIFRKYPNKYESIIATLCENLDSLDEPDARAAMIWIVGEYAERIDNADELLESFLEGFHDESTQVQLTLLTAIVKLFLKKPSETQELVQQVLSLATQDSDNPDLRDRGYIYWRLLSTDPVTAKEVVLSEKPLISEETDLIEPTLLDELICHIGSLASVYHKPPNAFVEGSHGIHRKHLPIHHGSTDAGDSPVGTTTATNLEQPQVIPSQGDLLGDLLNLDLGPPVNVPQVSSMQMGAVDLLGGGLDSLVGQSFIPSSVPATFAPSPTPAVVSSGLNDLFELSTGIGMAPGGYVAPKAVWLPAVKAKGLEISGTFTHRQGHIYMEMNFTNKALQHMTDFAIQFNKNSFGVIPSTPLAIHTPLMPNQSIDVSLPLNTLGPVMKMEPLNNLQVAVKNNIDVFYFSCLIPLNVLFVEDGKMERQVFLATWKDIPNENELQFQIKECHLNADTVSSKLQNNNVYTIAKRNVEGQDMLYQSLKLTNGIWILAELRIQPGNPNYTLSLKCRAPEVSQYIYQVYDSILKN
# UniProt A7KAX9, 1353-1385: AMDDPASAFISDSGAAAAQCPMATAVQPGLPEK
# UniProt A7KAX9, 1965-1985: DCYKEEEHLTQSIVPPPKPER
# UniProt Q06481, whole entry, looked up: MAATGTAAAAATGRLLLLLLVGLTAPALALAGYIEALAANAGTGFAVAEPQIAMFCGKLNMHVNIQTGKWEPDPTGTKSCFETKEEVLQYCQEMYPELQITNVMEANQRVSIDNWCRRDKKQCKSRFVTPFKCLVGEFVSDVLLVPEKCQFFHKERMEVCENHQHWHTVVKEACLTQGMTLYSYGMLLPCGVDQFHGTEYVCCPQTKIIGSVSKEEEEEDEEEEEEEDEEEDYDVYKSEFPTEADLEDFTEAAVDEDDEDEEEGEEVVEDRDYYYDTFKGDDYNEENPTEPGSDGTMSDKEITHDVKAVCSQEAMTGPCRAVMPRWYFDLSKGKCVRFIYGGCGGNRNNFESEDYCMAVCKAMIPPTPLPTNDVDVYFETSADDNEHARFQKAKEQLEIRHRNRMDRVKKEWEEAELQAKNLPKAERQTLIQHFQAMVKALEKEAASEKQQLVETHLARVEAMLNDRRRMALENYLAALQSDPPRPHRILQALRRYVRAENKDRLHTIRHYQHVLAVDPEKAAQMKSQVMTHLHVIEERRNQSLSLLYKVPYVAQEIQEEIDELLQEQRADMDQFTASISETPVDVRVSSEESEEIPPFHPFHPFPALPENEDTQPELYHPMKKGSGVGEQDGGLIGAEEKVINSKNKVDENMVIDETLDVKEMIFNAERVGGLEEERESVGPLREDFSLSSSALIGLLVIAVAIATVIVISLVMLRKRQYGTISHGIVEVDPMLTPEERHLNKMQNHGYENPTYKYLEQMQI
# UniProt Q9NQW6: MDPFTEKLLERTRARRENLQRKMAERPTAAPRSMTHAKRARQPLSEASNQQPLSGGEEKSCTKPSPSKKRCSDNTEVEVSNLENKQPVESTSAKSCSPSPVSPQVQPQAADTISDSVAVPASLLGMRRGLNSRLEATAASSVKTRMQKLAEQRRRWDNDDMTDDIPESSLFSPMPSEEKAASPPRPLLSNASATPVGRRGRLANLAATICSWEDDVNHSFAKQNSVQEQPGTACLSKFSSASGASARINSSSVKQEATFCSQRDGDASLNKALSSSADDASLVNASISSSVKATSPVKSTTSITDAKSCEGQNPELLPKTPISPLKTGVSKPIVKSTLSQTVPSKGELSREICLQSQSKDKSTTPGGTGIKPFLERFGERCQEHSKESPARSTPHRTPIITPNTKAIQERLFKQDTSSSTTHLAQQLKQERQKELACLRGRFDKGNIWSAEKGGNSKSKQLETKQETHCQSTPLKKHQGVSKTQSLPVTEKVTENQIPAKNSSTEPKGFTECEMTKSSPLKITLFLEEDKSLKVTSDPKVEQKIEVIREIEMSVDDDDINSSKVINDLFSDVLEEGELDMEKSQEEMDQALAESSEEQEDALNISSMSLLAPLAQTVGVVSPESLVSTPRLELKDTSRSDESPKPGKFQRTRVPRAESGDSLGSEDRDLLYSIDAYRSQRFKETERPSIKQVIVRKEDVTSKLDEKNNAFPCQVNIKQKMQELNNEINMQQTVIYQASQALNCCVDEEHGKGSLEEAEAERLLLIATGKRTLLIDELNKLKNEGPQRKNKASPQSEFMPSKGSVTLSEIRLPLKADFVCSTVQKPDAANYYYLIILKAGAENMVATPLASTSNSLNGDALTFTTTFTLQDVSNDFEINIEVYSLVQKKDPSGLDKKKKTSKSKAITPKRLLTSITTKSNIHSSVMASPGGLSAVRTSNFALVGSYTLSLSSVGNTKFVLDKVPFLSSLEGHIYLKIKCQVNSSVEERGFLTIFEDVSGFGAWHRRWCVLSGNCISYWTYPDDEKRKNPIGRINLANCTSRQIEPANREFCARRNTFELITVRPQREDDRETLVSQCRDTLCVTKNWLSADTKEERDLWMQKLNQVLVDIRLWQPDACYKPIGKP
# UniProt Q6NXT1: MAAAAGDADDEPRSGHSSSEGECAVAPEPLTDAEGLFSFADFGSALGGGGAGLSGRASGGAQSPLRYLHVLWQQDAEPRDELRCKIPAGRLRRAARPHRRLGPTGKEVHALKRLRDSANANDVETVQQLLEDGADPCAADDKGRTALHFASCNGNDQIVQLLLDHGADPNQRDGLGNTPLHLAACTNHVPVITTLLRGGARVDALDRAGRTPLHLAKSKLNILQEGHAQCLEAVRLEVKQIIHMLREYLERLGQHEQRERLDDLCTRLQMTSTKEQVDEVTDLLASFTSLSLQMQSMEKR
# Compound: ClCC(=O)N[C@@H]1CCCc2ccccc12
# Assay: log2 mean competition ratio of IA-DTB cysteine labelling (DMSO/compound) (log2 ratio); higher = stronger cysteine engagement by compound
# Settings: 200 µM; treatment time: 4 h; cell line lysate: HEK293T
# Method: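 IA-DTB competitive cysteine chemoproteomics in HEK293T RIPA lysate. Lysates were treated with compound 29 or 30 at 50 or 200 µM for 4 h, then IA-DTB (500 µM, 1 h), trypsin-digested, NeutrAvidin-enriched and analysed by diaPASEF. Competition ratio = intensity DMSO / intensity compound (n=4 treated, n=64 DMSO); binding: mean log2 CR ≥ 1 and p ≤ 0.05 plus QC filters. Target is the cysteine site.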
row,Target,log2 mean competition ratio
1,ANKRD40 C358 (UniProt Q6AI12),0.223
2,ARIH1 C327 (UniProt Q9Y4X5),-0.119
3,APBA2 C483 (UniProt Q99767),-0.547
4,ARHGAP19 C340 (UniProt Q14CB8),0.111
5,ANKRD11 C818 (UniProt Q6UB99),0.0816
6,ANXA7 C298 (UniProt P20073),-0.162
7,ANKRD52 C169 (UniProt Q8NB46),-0.247
8,ARID4B C178 (UniProt Q4LE39),0.109
9,ARCN1 C479 (UniProt P48444),-0.295
10,AQR C1245 (UniProt O60306),-0.24
11,ARFGEF2 C90 (UniProt Q9Y6D5),0.11
12,AP2A2 C532 (UniProt O94973),-0.299
13,ARNT C62 (UniProt P27540),0.0498
14,AP2A2 C282 (UniProt O94973),0.0414
15,AP3B1 C893 (UniProt O00203),-0.11
16,ASCC3 C225 (UniProt Q8N3C0),-0.213
17,AP1B1 C921 (UniProt Q10567),-0.104
18,APRT C140 (UniProt P07741),0.219
19,ARL6IP4 C36 (UniProt Q66PJ3),-0.0972

row,Target,log2 mean competition ratio
1,AP3D1 C348 (UniProt O14617),-0.133
2,ARHGEF40 C1282 (UniProt Q8TER5),-0.0792
3,ARMT1 C315 (UniProt Q9H993),-0.274
4,AP2B1 C241 (UniProt P63010),-0.123
5,ASCC3 C2101 (UniProt Q8N3C0),-0.187
6,ARHGAP32 C1372 (UniProt A7KAX9),-0.452
7,APBB1 C672,-0.177
8,ARHGAP32 C1966 (UniProt A7KAX9),0.214
9,APAF1 C203 (UniProt O14727),-0.0428
10,APLP2 C343 (UniProt Q06481),-0.0677
11,ARL5B C132 (UniProt Q96KC2),0.205
12,ARHGEF6 C418 (UniProt Q15052),-0.0239
13,ANLN C512 (UniProt Q9NQW6),-0.0696
14,ARL16 C164,0.102
15,ANKRD54 C265 (UniProt Q6NXT1),0.306
16,ARFGEF1 C1503 (UniProt Q9Y6D6),-0.206
17,ARHGEF7 C448 (UniProt Q14155),-0.287
18,APAF1 C633 (UniProt O14727),0.0464

# Shown with tabs: entries from further up
row	Target	log2 mean competition ratio
16	ARFGEF1 C1503 (UniProt Q9Y6D6)	-0.206
17	ARHGEF7 C448 (UniProt Q14155)	-0.287

# From the supplement of paper PMC11732987, “Enantioselective OTUD7B fragment discovery through chemoproteomics screening and high-throughput optimisation” (Communications Chemistry, 2025)
